At least one result comes from cells or an extract, where the contact may be indirect.
Test system: beta-catenin/hTcf-4 complex (endogenous, HT29) (Homo sapiens)
Assay: EMSA
Settings: [none]; supershifted by anti-beta-catenin; complex reduced sixfold on APC induction; protein in an extract; label: radiolabel; letters built from the parent sequence and the stated change

Chains of the proteins cited; added tags and fusions are not shown. Chains listed by the source or under a name are the forms on record and can include a tag or linker.
beta-catenin/hTcf-4 complex (endogenous, HT29) (Homo sapiens), one chain, as listed by the source, chain 2 of 2: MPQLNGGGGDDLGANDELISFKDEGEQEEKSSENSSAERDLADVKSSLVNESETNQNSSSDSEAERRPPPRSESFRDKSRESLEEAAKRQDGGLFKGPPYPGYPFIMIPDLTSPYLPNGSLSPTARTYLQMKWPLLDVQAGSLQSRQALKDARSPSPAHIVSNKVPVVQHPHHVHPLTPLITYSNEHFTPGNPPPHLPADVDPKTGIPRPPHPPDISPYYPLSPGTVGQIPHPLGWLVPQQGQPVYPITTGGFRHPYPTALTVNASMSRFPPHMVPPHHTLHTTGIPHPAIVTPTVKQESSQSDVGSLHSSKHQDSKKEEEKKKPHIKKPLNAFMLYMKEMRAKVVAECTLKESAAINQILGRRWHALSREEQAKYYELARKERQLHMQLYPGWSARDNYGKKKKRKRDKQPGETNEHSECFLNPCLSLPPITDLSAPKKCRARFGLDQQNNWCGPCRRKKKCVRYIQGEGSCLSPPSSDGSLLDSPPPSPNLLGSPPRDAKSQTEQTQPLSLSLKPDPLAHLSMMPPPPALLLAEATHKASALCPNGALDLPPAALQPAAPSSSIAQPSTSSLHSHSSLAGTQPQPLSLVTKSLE
beta-catenin/hTcf-4 complex (endogenous, HT29) (Homo sapiens), one chain, as listed by the source, chain 1 of 2: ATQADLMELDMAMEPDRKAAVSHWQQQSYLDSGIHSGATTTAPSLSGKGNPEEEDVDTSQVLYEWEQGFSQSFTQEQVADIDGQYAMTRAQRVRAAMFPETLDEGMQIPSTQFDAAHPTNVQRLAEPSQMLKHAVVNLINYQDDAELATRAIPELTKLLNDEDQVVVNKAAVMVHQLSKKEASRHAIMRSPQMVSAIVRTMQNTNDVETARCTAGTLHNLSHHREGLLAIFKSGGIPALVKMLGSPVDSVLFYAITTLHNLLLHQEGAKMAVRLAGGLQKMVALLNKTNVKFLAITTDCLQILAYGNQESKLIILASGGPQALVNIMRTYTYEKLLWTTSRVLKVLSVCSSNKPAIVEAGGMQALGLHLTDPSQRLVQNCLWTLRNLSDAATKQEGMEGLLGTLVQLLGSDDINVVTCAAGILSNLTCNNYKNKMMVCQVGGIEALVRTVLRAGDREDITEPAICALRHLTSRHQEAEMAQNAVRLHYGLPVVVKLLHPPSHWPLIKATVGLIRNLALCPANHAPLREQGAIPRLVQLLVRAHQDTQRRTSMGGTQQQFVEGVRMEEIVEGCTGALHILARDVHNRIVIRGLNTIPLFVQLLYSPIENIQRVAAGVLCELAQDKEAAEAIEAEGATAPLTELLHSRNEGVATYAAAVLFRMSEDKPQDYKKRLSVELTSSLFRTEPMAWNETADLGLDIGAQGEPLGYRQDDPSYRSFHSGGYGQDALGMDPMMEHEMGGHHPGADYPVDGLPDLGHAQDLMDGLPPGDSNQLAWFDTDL

Q: Does “CCCTTTGATCTTACC (double strand) [optimal Tcf/Lef probe]” bind?
A: binds
